Here are results for 104 sequences from PubChem BioAssay AID1347423 (Functional Genomics Laboratory (NCATS/FGL), 2020).

The whole screen tested about 52,000 sequences, of which about 210 (0.4%) were called active.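 How the source made its calls: active means gene whose silencing raises cell survival under the drug, median off-target-corrected z-score across its silencing RNAs 2 or more; inactive means the rest.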 The list shows a part of the results.

This assay can be described thus: Resistance to Poly (ADP-Ribose) Polymerase inhibitor: Gene Identification via Genome-wide siRNA Screen. The conditions noted are these: mouse BRCA2 R2336H ES cells, olaparib, CellTiter-Glo viability; active compounds read high. In a few lines: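 Genome-wide siRNA screen (3 siRNAs/gene, 20 nM) in mouse ES cells carrying hypomorphic BRCA2 R2336H; olaparib 500 nM added 48 h post-transfection, CellTiter-Glo viability 72 h later. Normalized to plate-median negative control; MAD z-scores, gene median, seed-adjusted.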
On to “CCAGGAAUCUGAGAUGAUGTT against 1600002K03Rik”, for which the z-score was inactive: 0.928.
In the case of “GGAACUAUACCAAAGGCAATT against B230363K08Rik”, the z-score is inactive: 0.116.
The value for GGGUCUGUUAUCUAAUCAGTT against Tk2 was inactive: 0.574; that for CCAUACCUCCAAGUACUUGTT against Itgal was inactive: -0.666.
The result for GCCCUUUACAAGGUUCUGUTT against Slc35f3 reads inactive: -0.719; that for CCGCUUCAGAUCUUUCGAGTT against Dcamkl1, inactive: -0.195.
The value for GCUAAAGGUGUGGUCUUUGTT against Cyp2d13 was inactive: 0.922; that for CCAGUAACUCAUGGUGCCUTT against MapKapk3 was inactive: 2.11.
In the case of GGCCAACAUCUGCUAUGUCTT against Hao3, the z-score was inactive: 0.175.
GGAAACUUGUUCAUGAUUGTT against Olfr1023: the z-score was inactive: -0.934.
As for CCAAGUUGUAUUAAAGUCUTT against Nfs1, the z-score was inactive: 0.485.
Take GCUUUAGUGACGGCUCGAATT against Zfp29: the z-score was inactive: 1.01.
The result for GGAGUCUUCAGGAAGAAAGTT against Rars reads inactive: -1.31.
Turning to GGUGCUGUCAUUUGAAUUCTT against Atp13a, the z-score was inactive: -0.0626.
For GGUGUAGCUGUGGUGGGUATT against Olfr360, the z-score was inactive: -1.33.
The value for GGAAGCAGUUCAUGUUAAGTT against Dtx4 was inactive: -0.106; that for “GGUUGAAAAGUAUCAAAGATT against 3000003F02Rik” was inactive: 0.203.
GGCCAUAUACUGGGCUAUATT against Skiv2l: the z-score was inactive: -2.19.
Take GGCAUAUGCCAGUAUCGGUTT against Defb8: the z-score is inactive: -0.753.
The value for “GGCACUUGGAGGUAGUUUCTT against C330027C09Rik” was inactive: -0.493; that for CCAAAUGCGAUUUUAUAACTT against Trps1 was inactive: 2.73; that for GGUUGGUUUUGUGUUUGCUTT against Pitx1 was inactive: 1.21.
Consider GCCAUAUCAACUCAGAUCATT against Ssh2, for which the z-score is inactive: 1.91.
The result for GCAGCUCCCAAUCUCACUUTT against LOC545554 reads inactive: 0.0848.
Consider GGCAGUAAUAGGAGACCAUTT against Ces3, for which the z-score was inactive: 0.171.
The result for “GGACAAUGUUGAAUCCUGUTT against 2810430M08Rik” reads inactive: -0.454; that for CCAGAAAGAACCUGCCGUATT against Tdgf1, inactive: 0.569; that for GGUUUGUCUCAGAGAUUGUTT against Aloxe3, inactive: 1.14.
In the case of GCUUUGCAUAUGAUUCUACTT against Nt5c2, the z-score was inactive: -0.137.
The value for GGAACGAAGUCCCUAAAGATT against Csf3 was inactive: -0.606.
For the sequence “GCCUUAACCACAAUUAAAATT against 4930469P12Rik”, the z-score is inactive: 0.613.
The value for GGAGCAAUUCUACCGCUACTT against Fbxw5 was inactive: 0.81.
The value for GGAUUCCAUCUUUGUAUGATT against BC009118 was inactive: 0.0699.
Turning to GCUAAUGACGCGAUAGCCUTT against Gtf2b, the z-score was inactive: 0.314.
As for GCGAUGACCUUGUUCGGAUTT against F10, the z-score was inactive: 1.23.
With GGUGCCUGUCAUUAAAAUGTT against Lenep, the z-score was inactive: -1.51.
The result for GGUAGACGGAAUCUAUUUATT against Kcnj15 reads inactive: 0.149; that for GCCAGUAUGACUAGUCGUGTT against Oprk1, inactive: 0.904.
The value for GAAUCCCUUCGAGUACGACTT against Fxyd2 was inactive: -0.139; that for GGCUGAAUCACCAGAACAUTT against Ikbke was inactive: -1.
GGUUCUGUCUAUUCUGCACTT against Slco4a1: the z-score was inactive: 2.28.
The value for CGGUGAUAACAGACAUUAATT against Aldh8a1 was inactive: -1.22.
As to “CCAGAAACUCGCAUAUCACTT against 4732495E13Rik”, the z-score was inactive: 0.552.
On to GCUAAAGGACCUGAAAUGGTT against Gas8, for which the z-score is inactive: 0.817.
The result for GCAGGACAUCUAAAUCUCUTT against Fgfbp1 reads inactive: 0.215; that for GCAGUUAAUGCCAACAGUCTT against Ep400, inactive: -1.22.
The result for GCAGAACACCGCUGGAAGUTT against Pard3 reads inactive: 1.66.
Regarding GGGUUGUAGAUGCGUGGAATT against BC042549, the z-score was inactive: 0.822.
The value for GGACGUGUACAUUGUCAAGTT against Unc5a was inactive: 1.24; that for GGAUGUCUGACACAAGUGUTT against Olfr390 was inactive: -2.8; that for CGUAGCAACUUGUUUCUCUTT against AK122525 was inactive: 3.77.
As for GUUCAUCCCGUAUCACCACTT against Cox6a2, the z-score was inactive: 1.66.
As to “GCAAAUCGAGGACAGAAUUTT against Kiaa0298-hp”, the z-score is inactive: -0.177.
Turning to GGAUCAGUGGACAAAAUAUTT against Uqcrb, the z-score was inactive: -2.14.
With GGAAGCUCUUCAACUCUACTT against Vps4b, the z-score is inactive: 0.791.
Take “GGACUGCAUUCCUCUGAUCTT against B930018B01”: the z-score is inactive: -0.49.
The value for GGAUGUUCCAUAUUAUACCTT against Adamdec1 was inactive: -0.236; that for GGACAAAGAUGAAAUCCGATT against Btbd3 was inactive: -0.0353.
Take GCCAAAUAAUCUGAAAGCCTT against Rpl28: the z-score is inactive: 0.739.
The result for GGACAAUAGAUCGUCACUUTT against AV249152 reads inactive: -0.91; that for GGAAAUGAUCGAAAUGGCCTT against Pou2f3, inactive: 0.949; that for GGAAGAGCAGCAGAUGAAATT against Prodh, inactive: -0.297.
The result for CCUAUACACCCAUUUUUAATT against Arl2bp reads inactive: 0.324; that for GCAGACAGUAAAUUGGUAATT against BC037703, inactive: -1.02; that for CGCCAGAUGGACUUCAUCATT against Slc6a8, inactive: -0.0271.
The result for GGUCUAUGCCAGUUUUGCATT against Tegt reads inactive: 0.645; that for CGAUGUAAAGAGCUGGUAGTT against Zdhhc13, inactive: 0.68.
Turning to “UGAUAGUCUCCACUAAAUUTT against 4930549O06”, the z-score was inactive: 0.0181.
The result for CCUGCAUAUUGGAUUAAUATT against AW050020 reads inactive: 0.835; that for GCCGCUAUCGUCUUUAUCATT against Ptk7, inactive: 0.37; that for GCUCCAAUGUGGUUGAGCATT against Olfr531, inactive: -0.936.
The result for “GGAAUAUUGCUAAACACAATT against 1700025G04Rik” reads inactive: 0.326; that for GGAACUUAUCCGGUUUGAUTT against Limk1, inactive: 0.583.
As to “CCUACGAGUUGUUAAGGACTT against 9130207N01”, the z-score was inactive: -0.334.
The value for GGUAUUGAAAAAGCUUUUCTT against Rragc was inactive: -0.14; that for UUCUGUGCAUCCUGUCCUATT against Kcnk15 was active: -0.484.
The result for GGCUCCUGGGCAAUAUGAUTT against Hbb-b1 reads inactive: -0.114; that for GGUGGUCAUCAACACACAGTT against Drd1ip, inactive: 0.467; that for GCAGUAGGUUGCACACAUATT against Art1, inactive: -0.715.
For GGACUAGUUGUGACUUAAGTT against Aldh1a1, the z-score is inactive: 0.188.
On to GCAUUCUCAAGAGAUGCCCTT against Alk, for which the z-score is inactive: -0.552.
For GGCAAUCAUUGGACUAUACTT against Nckap1, the z-score is inactive: -0.467.
Regarding “GGAGGCUAUCAGAAGCAUCTT against C130021I20”, the z-score is inactive: -0.324.
The result for GCCUGAUACGUUUUUUAAGTT against Ccr1l1 reads inactive: 0.331; that for “GCUAUGAUGUAGCCAGGACTT against 1110007F05Rik”, inactive: -2.43.
With GGAUGUCUACUUUGUAUCUTT against Tph1, the z-score is inactive: -1.19.
In the case of “GGAUUCAUUUCAUACCUUGTT against 1700093E07Rik”, the z-score was inactive: -0.368.
In the case of GGACCUUUUGUGAACUUACTT against E2f3, the z-score was inactive: 2.23.
The value for “CCGUUCUCCAGGACUCUUUTT against 2310036O22Rik” was inactive: 0.246; that for “CCACUUGAGAGGUGUUUUUTT against 1110055N21Rik” was inactive: 1.28; that for GGACAAUCACUCCAGGAGUTT against Gzmg was inactive: -0.123.
The result for GAUGUCUUCUAUGGAGGCATT against Olfr60 reads inactive: -1.31.
Regarding “GGGUAAAGACCUCAAUGAATT against 3200001I04Rik”, the z-score was inactive: 0.278.
The result for GCACUUUGACCUGAAUCUATT against Bing4 reads inactive: -1.41; that for GGUUACCUAUACAUUUCAGTT against Erbb2, inactive: -0.108; that for GGGAGGUAGUCGUAGAAAUTT against Trp53i11, inactive: 0.685.
The result for GGAGAAAUGGUACAAGGUCTT against Nxf2 reads inactive: 0.783; that for GGCCUAAUAUUUUCAUAGATT against Prdx6-rs1, inactive: -0.514.
As to GGAGAAGUUGGCAAAGAUGTT against Col9a3, the z-score is inactive: 2.69.
For GGAGAGCACGAUAACAAGATT against Fabp5, the z-score is inactive: -0.938.
The result for GGUCCUUGGUAAUCAAAUATT against Zc3hdc7 reads inactive: -1.19; that for GGCUUGUUUAUGUGUAAUUTT against Bccip, inactive: -2.71.
The result for GCAAGAGUUACUUCUUAUUTT against Hdac9 reads inactive: -0.212.
The value for “GCUGAGUGAUCGAUCUUAATT against 0610012C01Rik” was inactive: -0.292.
